{
  "source": "paper PMC6581700",
  "binders": {"B1": {"name": "p52 (protein, UniProt Q00653 1-454)", "chain": "MESCYNPGLDGIIEYDDFKLNSSIVEPKEPAPETADGPYLVIVEQPKQRGFRFRYGCEGPSHGGLPGASSEKGRKTYPTVKICNYEGPAKIEVDLVTHSDPPRAHAHSLVGKQCSELGICAVSVGPKDMTAQFNNLGVLHVTKKNMMGTMIQKLQRQRLRSRPQGLTEAEQRELEQEAKELKKVMDLSIVRLRFSAFLRASDGSFSLPLKPVISQPIHDSKSPGASNLKISRMDKTAGSVRGGDEVYLLCDKVQKDDIEVRFYEDDENGWQAFGDFSPTDVHKQYAIVFRTPPYHKMKIERPVTVFLQLKRKRGGDVSDSKQFTYYPLVEDKEEVQRKRRKALPTFSQPFGGGSHMGGGSGGAAGGYGGAGGGGSLGFFPSSLAYSPYQSGAGPMGCYPGGGGGAQMAATVPSRDSGEEAAEPSAPSRTPQCEPQAPEMLQRAREYNARLFGLA"}},
  "molecular_target": "Flag-APH-2 (antisense protein of HTLV-2) (HTLV-2)",
  "assay": "co-IP; HEK293T cells transfected with 1 ug of each expression vector, harvested after 24 h; lysed in 10 mM Tris-HCl pH 7.5, 5 mM EDTA, 150 mM NaCl, 1% Triton X-100; Flag-tagged protein precipitated with anti-Flag antibody overnight at 4°C on Dynabeads Protein G or A; partner detected by western …",
  "note": "No constants are given. Whether binding was seen depends on the method and setting. In cells and extracts the contact can be indirect.",
  "data": [
    {"binder": "B1", "values": [
      {"measurement": "binding", "value": "no binding"}
    ]}
  ]
}
